Inconclusive means that the source gave no clear call. Such entries were picked first, then a sample of the others. Potencies of inconclusive entries are doubtful fits and often do not repeat. Active and inactive are the calls of the source. Unless noted, the call rests on the fitted dose curve.
Experiments:
[1] = target: Retinoic acid receptor RXR-alpha (Homo sapiens) (UniProt P19793); experiment: qHTS assay to identify small molecule agonists of the RXR signaling pathway (AID 1159527); conditions: HEK293T RXRa-UAS-bla, beta-lactamase ratio, 16 h; activation: at 76.8 µM (top of the series) unless noted; further: nearly all actives have a fitted effect of over 35% in size
Outline: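 Using 9-cis retinoic acid as the reference agonist, chemicals were tested in HEK 293T cells […] for 16 hr; substrate loading lasted 2 hr at room temperature.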

The chains behind the UniProt entries cited, without tags or fusion partners. Where a name states a change or a piece, a line headed by the entry shows the natural chain unless it says otherwise.
UniProt P19793: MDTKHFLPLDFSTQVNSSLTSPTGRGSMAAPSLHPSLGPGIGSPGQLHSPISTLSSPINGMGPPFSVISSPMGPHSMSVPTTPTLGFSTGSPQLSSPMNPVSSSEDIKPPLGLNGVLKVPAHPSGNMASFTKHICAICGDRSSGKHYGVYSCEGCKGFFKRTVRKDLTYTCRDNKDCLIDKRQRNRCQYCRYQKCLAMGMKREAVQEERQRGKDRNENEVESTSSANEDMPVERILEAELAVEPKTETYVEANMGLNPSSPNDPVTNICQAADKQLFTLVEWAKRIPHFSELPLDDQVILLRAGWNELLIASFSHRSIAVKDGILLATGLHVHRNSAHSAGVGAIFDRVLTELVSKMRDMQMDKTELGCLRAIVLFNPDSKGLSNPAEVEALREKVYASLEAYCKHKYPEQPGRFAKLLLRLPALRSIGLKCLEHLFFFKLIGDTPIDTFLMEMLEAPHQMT

[2] = qHTS assay to identify small molecule agonists of the retinoic acid receptor (RAR) signaling pathway (AID 1159553; active means well fitted activation curve with a large enough effect in the repeat runs; inconclusive means weak or mixed curves, or effect the other way; inactive means no such curve, though single readings can be large or run the other way); conditions: C3RL4 RARE luciferase reporter, agonist, 6 h; activation: at 73.3 µM (top of the series) unless noted
Outline: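 Quantitative high-throughput format: the Tox21 10K library was tested on C3RL4 RARE-luciferase cells for 6 hr at 37 C and 5% CO2, with luminescence measured after a 30 min room-temperature reagent step.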
On the % scale 0 is the no-effect control and ±100 the full control effect; potency means the concentration at half of the fitted maximal effect.

Row | SMILES | Potency [1] | Potency [2] | activation [1] | activation [2]
1 | C=C(C)C(=O)OCC(O)COc1ccc(C(C)(C)c2ccc(OCC(O)COC(=O)C(=C)C)cc2)cc1 (stereo not drawn) | inconclusive: 38.9 µM [rising, partial curve] | inconclusive: 54.5 µM [inhibitor, partial curve, poor fit] |  | 
2 | O=C1OC(OC(=O)c2cccnc2Nc2cccc(C(F)(F)F)c2)c2ccccc21 (stereo not drawn) |  | inconclusive: 33.5 µM [activator, partial curve, poor fit] | inconclusive: -8.59% [at 35.3 µM] | 
3 | CCC1=C[C@@H]2CN(C1)Cc1c([nH]c3ccccc13)[C@@](C(=O)OC)(c1cc3c(cc1OC)N(C)[C@H]1[C@@](O)(C(=O)OC)[C@H](OC(C)=O)[C@]4(CC)C=CCN5CC[C@]31[C@@H]54)C2 | inconclusive: 0.0379 µM [inhibitor, full curve] | inconclusive: 0.168 µM [inhibitor, full curve] |  | 
4 | N[C@@H](CSSC[C@H](N)C(=O)O)C(=O)O | inconclusive: 0.301 µM [inhibitor, single point] | inconclusive: 0.266 µM [inhibitor, partial curve] |  | 
5 | CCCCOCCOC(=O)COc1nc(Cl)c(Cl)cc1Cl | inactive |  |  | inconclusive: 0.21% [phenotype inactive]
6 | C=C(C)C(=O)OCCCCCC |  | inconclusive: 77 µM [activator, partial curve, poor fit] | inconclusive: 20.9% | 
7 | CNc1c2c(nn1C)CCCC2 | inactive | inactive |  | 
8 | CCCC(C)C(=O)OCC (stereo not drawn) | inactive | inconclusive: 77 µM [inhibitor, single point] |  | 
9 | CC(C)(C)C1CCC(=O)CC1 | inconclusive: 61.6 µM | inconclusive: 77 µM [inhibitor, single point] |  | 
10 | CCC(=O)OCc1ccc(OC)cc1 | inconclusive: 22.4 µM [inhibitor, partial curve, poor fit] | inactive |  | 
11 | Cc1cccc(Nc2ccccc2)c1 |  | inconclusive: 19.3 µM [activator, partial curve, poor fit] | inconclusive: -26.1% | 
12 | COc1cc(CNC(=O)CCCC/C=C/C(C)C)ccc1O |  |  | inconclusive: -0.157% | inconclusive: 5.5% [phenotype inactive]
13 | C[Si](C)(C)O[Si](C)(C)C | inactive | inactive |  | 
14 | COc1ccc(-c2nc3ccc(C4=NNC(=O)CC4C)cc3[nH]2)cc1 (stereo not drawn) |  | inconclusive: 11.9 µM [activator, partial curve] | inconclusive: -22.3% [at 35.3 µM] | 
15 | CC(C)CCCC(C)CCO (stereo not drawn) | inconclusive: 30.9 µM [activator] | inconclusive: 77 µM [inhibitor, single point] |  | 
16 | O=C(c1ccc(O)c(O)c1)c1ccc(O)cc1O | inconclusive: 24.5 µM [fluorescent, partial curve] |  |  | inconclusive: 15.5% [phenotype inactive]
17 | CCCOC(=O)c1ccc(C(=O)OCCC)nc1 | inconclusive: 24.5 µM [activator] | active: 68.6 µM |  | 
18 | CC1=NN(c2ccc(C(=O)O)cc2)C(=O)C1 | inconclusive: 19.5 µM [activator, full curve] | active: 68.6 µM |  | 
19 | CCCCCCCC/C=C/CCCOC(C)=O |  | inconclusive: 77 µM [inhibitor, single point] | inconclusive: -22.9% | 
20 | CC(C)(C)c1cc(CCC(=O)OCC(COC(=O)CCc2cc(C(C)(C)C)c(O)c(C(C)(C)C)c2)(COC(=O)CCc2cc(C(C)(C)C)c(O)c(C(C)(C)C)c2)COC(=O)CCc2cc(C(C)(C)C)c(O)c(C(C)(C)C)c2)cc(C(C)(C)C)c1O |  | inactive | inconclusive: 16.9% [at 35.3 µM] | 
21 | COc1cc(C(C)C)c2c(c1)S(=O)(=O)N(COc1cc(=O)n3cccc(OCCN4CCCCC4)c3n1)C2=O |  | inactive | inconclusive: -25.5% [at 15.8 µM] | 
22 | COc1ccc(/C=C/c2cc(OC)cc(=O)o2)cc1 |  | active: 2.79 µM | inconclusive: -17% [at 35.3 µM] | 
23 | NS(=O)(=O)c1cc2c(cc1Cl)NC(C1CC3C=CC1C3)NS2(=O)=O (stereo not drawn) | inactive | inactive |  | 
24 | CC(C)(C)NSc1nc2ccccc2s1 | inconclusive: 49.8 µM [rising, partial curve] |  |  | active: 7.05% [at 94.8 µM]

Part of the list above, as a markdown table.

| Row | SMILES | Potency [1] | Potency [2] | activation [1] | activation [2] |
| --- | --- | --- | --- | --- | --- |
| 8 | CCCC(C)C(=O)OCC (stereo not drawn) | inactive | inconclusive: 77 µM [inhibitor, single point] |  |  |
| 9 | CC(C)(C)C1CCC(=O)CC1 | inconclusive: 61.6 µM | inconclusive: 77 µM [inhibitor, single point] |  |  |
| 15 | CC(C)CCCC(C)CCO (stereo not drawn) | inconclusive: 30.9 µM [activator] | inconclusive: 77 µM [inhibitor, single point] |  |  |
| 19 | CCCCCCCC/C=C/CCCOC(C)=O |  | inconclusive: 77 µM [inhibitor, single point] | inconclusive: -22.9% |  |
| 20 | CC(C)(C)c1cc(CCC(=O)OCC(COC(=O)CCc2cc(C(C)(C)C)c(O)c(C(C)(C)C)c2)(COC(=O)CCc2cc(C(C)(C)C)c(O)c(C(C)(C)C)c2)COC(=O)CCc2cc(C(C)(C)C)c(O)c(C(C)(C)C)c2)cc(C(C)(C)C)c1O |  | inactive | inconclusive: 16.9% [at 35.3 µM] |  |
| 21 | COc1cc(C(C)C)c2c(c1)S(=O)(=O)N(COc1cc(=O)n3cccc(OCCN4CCCCC4)c3n1)C2=O |  | inactive | inconclusive: -25.5% [at 15.8 µM] |  |
